Laboratory results as given in PubChem BioAssay AID540276 (National Center for Advancing Translational Sciences (NCATS), 2011).
The whole screen tested about 300,000 compounds, of which about 5,400 (1.8%) were called active. This list was built around the results that the source calls inconclusive (neither active nor inactive); the mix of calls is not that of the screen. Calls follow the shape of the full dose curve; tested in HEK293 cells. Potencies beside an inconclusive call are fits to weak or partial responses and may not hold up.

Assay: qHTS for inhibitors of binding or entry into cells for Marburg Virus
Details: Marburg virus pseudotyped entry inhibition, cell reporter; activity change, negative = inhibition: at 37.8 µM (top of the series) unless noted
% is scaled to controls: 0 for no effect and ±100 for the full control effect; potency is read from the fitted curve at half-maximal effect.

SMILES | Potency | activity change, negative = inhibition
CN1OC[C@@H]2COc3ccc4ccccc4c3[C@@H]21 | inconclusive: 35.5 µM [activator, single point] | –
COc1ccc(-c2nnc(SCC(=O)N3CCCC3)o2)cc1OC | – | inactive: -4.72%
CN(CC(=O)Nc1sccc1C#N)Cc1ccccc1 | inconclusive: 0.224 µM [activator, full curve, poor fit] | –
COCCCNC(=O)COc1ccc(Cl)c(C)c1 | inconclusive: 18.3 µM [activator, single point] | –
CCN(c1ccccc1)C(CNS(=O)(=O)c1ccccc1)c1ccccc1 (stereo not given) | – | inactive: -16.4% [at 46.1 µM]
COC[C@@H](O)[C@H]1OCc2cc(OC)ccc2[C@H]1C=Cc1ccccc1 | inconclusive: 0.0335 µM [inhibitor, full curve, poor fit] | –
COc1ccc(C2C3=C(CC(C)(C)CC3=O)Nc3c2c(=O)[nH]c(=O)n3Cc2ccccc2)cc1OC (stereo not given) | – | inactive: -1.22%
CCOc1ccc2oc(C(=O)OCC(=O)N(CC(C)C)c3c(N)n(Cc4ccccc4)c(=O)[nH]c3=O)c(C)c2c1 | inconclusive: 8.91 µM [inhibitor, partial curve, poor fit] | –
CCN(C(=O)C(=O)Nc1ccc2nc3n(c(=O)c2c1)CCCCC3)c1ccc(F)cc1 | – | inactive: -26.3% [at 46.1 µM]
COc1ccc(CCNC(=O)Cc2c(C)c3c(cc(C)c4c(C)coc43)oc2=O)cc1OC | – | inactive: -0.361% [at 46.1 µM]
COc1ccc(-c2nnc(SC(C)C(=O)Nc3cccc(Cl)c3)o2)cc1 (stereo not given) | inconclusive: 29.1 µM [inhibitor, single point] | –
COc1cc([N+](=O)[O-])cc(/C=N/NC(=O)c2ccc(C)nc2)c1O | inconclusive: 12.6 µM [inhibitor, single point] | –
Cc1nn(C(C)C(=O)NC2CCCCC2)c(=O)c2c1sc1ccccc12 (stereo not given) | inconclusive: 3.98 µM [inhibitor, full curve, poor fit] | –
CO/N=C/C(=N\Nc1ccc(OC)cc1)C(=O)c1ccc(OC)cc1 | inconclusive: 35.5 µM [inhibitor, single point] | –
Cc1cc(C)cc(NC(=O)COC(=O)c2cc(=O)[nH]c(=O)[nH]2)c1 | inconclusive: 1.12 µM [activator, partial curve, poor fit] | –
COCCOc1ccc(C(F)(F)F)cc1NC(=O)CN1C(=O)NC2(CCCc3ccccc32)C1=O (stereo not given) | inconclusive: 31.6 µM [inhibitor, partial curve, poor fit] | –
Cc1ccc(NC(=O)CSc2nc(C)c(Cc3ccccc3)c(=O)[nH]2)cc1C | inconclusive: 0.562 µM [activator, full curve, poor fit] | –
CCN(CC)c1ccc(NC(=O)/C=C/c2cc(Br)ccc2OC)cc1 | – | inactive: -5.43%
Cc1ccc(NC(=O)Nc2ccccc2)c(Br)c1 | inconclusive: 3.55 µM [activator, single point] | –
CCC(CC)NC(=O)COC(=O)c1cc(Br)ccc1Cl | inconclusive: 1.58 µM [activator, partial curve, poor fit] | –

SMILES | Potency | activity change, negative = inhibition
CCN(CC)CCN(C(=O)CCS(=O)(=O)c1ccccc1)c1nc2c(C)cc(C)cc2s1 | inconclusive: 35.5 µM [inhibitor, single point] | –
CC(=O)N1c2c(cc(Br)cc2S(=O)(=O)N2CCN(C(=O)c3ccco3)CC2)CC1C (stereo not given) | inconclusive: 1.12 µM [inhibitor, partial curve] | –
CSc1ccc(CCNC(=O)C2CCCN(c3ncnc4c3nc3n4CCCCC3)C2)cc1 (stereo not given) | inconclusive: 12.6 µM [inhibitor, partial curve, poor fit] | –
CCc1ccc(N(C(=O)CCC(=O)Nc2cc(C)on2)C(C(=O)NC(C)(C)C)c2ccc(OC)cc2)cc1 (stereo not given) | inconclusive: 11.2 µM [inhibitor, partial curve, poor fit] | –
CCN(CC)S(=O)(=O)c1ccc(C(=O)OCC(=O)Nc2ccc(-c3nc4ccc(C)cc4s3)cc2)cc1 | inconclusive: 2.51 µM [inhibitor, full curve, poor fit] | –
C=C(C)COc1ccc(-c2[nH]ncc2-c2ccccc2OC)c(O)c1 | active: 7.94 µM | –
COCCCC1CCN(Cc2nc(Cc3ccccc3Cl)no2)CC1 | inconclusive: 35.5 µM [activator, single point] | –
O=C(N/N=C/c1cc2ccccc2nc1Cl)/C(=C/c1cccs1)NC(=O)c1ccccc1 | – | inactive: -13%
CCNC(=S)N1CCN(CC(=O)Nc2ccc(Br)cc2)CC1 | inconclusive: 35.5 µM [activator, single point] | –
COc1ccc(NC(=S)NNC(=O)C2CC2c2ccc(C)cc2)cc1 (stereo not given) | – | inactive: 3.4%
CN(C)c1ccc(N=Cc2nc(-c3ccccc3)oc2OC(=O)c2ccccc2)cc1 | inconclusive: 0.231 µM [inhibitor, partial curve, poor fit] | –
Cc1cc(C(=O)NCCC2=CCCCC2)ccc1[N+](=O)[O-] | – | inactive: -0.363% [at 46.1 µM]
O=C(Cn1cnc([N+](=O)[O-])n1)N/N=C/c1cccc2ccccc12 | inconclusive: 3.55 µM [activator, single point] | –
CCOc1cccc(C2Nc3ccccc3-c3cc(C)nn32)c1O (stereo not given) | inconclusive: 20 µM [activator, partial curve, poor fit] | –
COc1cccc(-c2nn(C)c3sc(C(=O)NCc4ccccn4)cc23)c1 | inconclusive: 3.16 µM [inhibitor, partial curve, poor fit] | –
COC(=O)c1ccsc1NC(=O)CN1CCN(c2ncccn2)CC1 | inconclusive: 1.12 µM [inhibitor, full curve, poor fit] | –
COCCn1c(SCC(=O)NNC(=O)c2ccc(OC)c(OC)c2)nc2ccccc2c1=O | inconclusive: 3.16 µM [activator, single point] | –
COc1ccc(Cn2nnc3c(=O)[nH]c(C4CCCN(C(=O)c5ccc(C)cc5)C4)nc32)cc1 (stereo not given) | inconclusive: 3.55 µM [inhibitor, partial curve, poor fit] | –
O=C(OCC(=O)c1c[nH]c2ccccc12)c1cccc(O)c1 | inconclusive: 16.4 µM [activator, single point] | –
COc1ccc(CCNC(=O)Cn2c(=O)n(-c3ccc(C)c(C)c3)c(=O)c3c(C)c(C)sc32)cc1OC | – | inactive: 12.3% [at 46.1 µM]

Taken from above:
Under Potency, CC(=O)N1c2c(cc(Br)cc2S(=O)(=O)N2CCN(C(=O)c3ccco3)CC2)CC1C (stereo not given) shows inconclusive: 1.12 µM [inhibitor, partial curve]
Under activity change, negative = inhibition, O=C(N/N=C/c1cc2ccccc2nc1Cl)/C(=C/c1cccs1)NC(=O)c1ccccc1 shows inactive: -13%
